The list shows only some results of the screen, not a fair sample: it is rich in T/C values a quarter to a half above the control, in often repeated tests (any T/C) and in doses without a T/C. Further doses and runs are listed elsewhere. T/C: endpoint of the treated group in % of that of the vehicle group. Some doses have a count of surviving animals in place of a T/C: the source files T/C as zero there, which appears to mark a toxic dose or a test without result, not a measured value. Some survivor counts are full or nearly so, which does not show that the dose was tolerated: survival well below the control is almost never listed, so the zero probably covers shortened survival too. Survivors were counted at the toxicity check, usually on the fifth day, unless a day is given; later deaths do not show. Schedule codes are those of the source, read here as Q, the interval in days (D) or hours (H), X, the number of doses. Some entries were tested several times; their values stand side by side, smallest first. For survival time, this PubChem deposit counts one and a half times the control or more as active, and values a quarter to a half above the control carry no call in these data; other NCI protocols may use other cut-offs.
Test system: L1210 leukemia ip in BDF1 mice, survival T/C
Assay: NCI In Vivo Anticancer Drug Screen. Data for tumor model L1210 Leukemia (intraperitoneal) in B6D2F1 (BDF1) mice
Settings: T/C endpoint: mean survival time, higher T/C = longer survival
[1] = dose: 100.0 mg/kg/injection, schedule: Q01DX009 (ip), vehicle: Klucel (hydroxypropylcellulose) (HPC)
[2] = dose: 400.0 mg/kg/injection, schedule: Q01DX009 (ip), vehicle: Klucel (hydroxypropylcellulose) (HPC)
[3] = dose: 400.0 mg/kg/injection, schedule: Q01DX001 (ip), vehicle: saline
[4] = dose: 400.0 mg/kg/injection, schedule: Q01DX009 (ip), vehicle: saline with Tween-80
[5] = dose: 400.0 mg/kg/injection, schedule: Q04DX003 (ip), vehicle: saline with Tween-80
[6] = dose: 75.0 mg/kg/injection, schedule: Q01DX001 (ip), vehicle: saline
[7] = dose: 150.0 mg/kg/injection, schedule: Q01DX001 (ip), vehicle: saline
[8] = dose: 300.0 mg/kg/injection, schedule: Q01DX001 (ip), vehicle: saline
[9] = dose: 200.0 mg/kg/injection, schedule: Q01DX001 (ip), vehicle: carboxymethylcellulose (CMC)
[10] = dose: 400.0 mg/kg/injection, schedule: Q01DX001 (ip), vehicle: carboxymethylcellulose (CMC)
[11] = dose: 100.0 mg/kg/injection, schedule: Q01DX009 (ip), vehicle: saline
[12] = dose: 200.0 mg/kg/injection, schedule: Q04DX003 (ip), vehicle: saline
[13] = dose: 400.0 mg/kg/injection, schedule: Q04DX003 (ip), vehicle: saline
[14] = dose: 200.0 mg/kg/injection, schedule: Q04DX003 (ip), vehicle: saline with Tween-80

Compound: NNc1cc(NN)c2[nH]cnc2n1
- survivor count (dose: 200.0 mg/kg/injection, schedule: Q01DX001 (ip), vehicle: Klucel (hydroxypropylcellulose) (HPC)): 3 of 6
- survivor count (dose: 400.0 mg/kg/injection, schedule: Q01DX001 (ip), vehicle: Klucel (hydroxypropylcellulose) (HPC)): 3 of 6

Compound: COc1cc2c(c(OC)c1OC)-c1ccc(SC)c(=O)cc1C(N(C)C)CC2 (stereo unspecified)
- T/C [1]: 147 % of control
- survivor count [2]: 1 of 6

Compound: c1ccc(CC2NCCc3c2[nH]c2ccccc32)cc1 (stereo unspecified)
- survivor count (dose: 50.0 mg/kg/injection, schedule: Q04DX003 (ip), vehicle: Klucel (hydroxypropylcellulose) (HPC)): 4 of 4
- survivor count [2]: 2 of 6

Compound: Cc1cc2nnc(C)n2c2ccccc12
- survivor count (dose: 200.0 mg/kg/injection, schedule: Q01DX001 (ip), vehicle: saline): 0 of 4
- survivor count [3]: 0 of 4

Compound: O=C(CC(O)(C(F)(F)Cl)C(F)(F)Cl)c1cccc([N+](=O)[O-])c1
- survivor count [4]: 1 of 6

Compound: CCOC(=O)c1cnn2c(=O)[nH]cnc12
- survivor count [5]: 0 of 6

Compound: CSc1nc(Cl)nc(C(Cl)Cl)c1Cl
- survivor count (dose: 100.0 mg/kg/injection, schedule: Q01DX009 (ip), vehicle: other): 0 of 3
- survivor count (dose: 200.0 mg/kg/injection, schedule: Q01DX009 (ip), vehicle: other): 0 of 3

Compound: Nc1ncnc2c1ncn2C1OC(C(=O)NO)C(O)C1O (stereo unspecified)
- survivor count (dose: 3.12 mg/kg/injection, schedule: Q01DX009 (ip), vehicle: saline): 0 of 6
- survivor count (dose: 6.25 mg/kg/injection, schedule: Q01DX005 (ip), vehicle: saline): 0 of 6
- survivor count (dose: 12.5 mg/kg/injection, schedule: Q01DX005 (ip), vehicle: saline): 0 of 6
- survivor count (dose: 25.0 mg/kg/injection, schedule: Q01DX005 (ip), vehicle: saline): 0 of 6
- survivor count (dose: 50.0 mg/kg/injection, schedule: Q01DX005 (ip), vehicle: saline): 0 of 6
- survivor count (dose: 100.0 mg/kg/injection, schedule: Q01DX005 (ip), vehicle: saline): 0 of 6
- survivor count (dose: 200.0 mg/kg/injection, schedule: Q01DX005 (ip), vehicle: saline): 0 of 6

Compound: Cn1c(NCC[N+](C)(C)C)nc2ncncc21
- survivor count [6]: 1 of 6
- survivor count [7]: 0 of 6
- survivor count [8]: 0 of 6

Compound: O=C(CCCC(=O)N/N=C/c1cccc(Br)c1)N/N=C\c1cccc(Br)c1
- survivor count [9]: 4 of 4
- survivor count [10]: 4 of 4

Compound: CN(C)C1CC[N-]CC1.CN(C)C1CC[N-]CC1.[Cl][Pt+2][Cl]
- survivor count [11]: 2 of 6
- survivor count [12]: 3 of 6
- survivor count [13]: 0 of 6

Compound: O=C(CCCN1CC=C(N2CCc3ccccc32)CC1)c1ccc(F)cc1
- survivor count [5]: 6 of 6

Compound: CCC1CC2c3cc(OC)c(OC)cc3CCN2CC1(O)c1ccccc1 (stereo unspecified)
- survivor count (dose: 100.0 mg/kg/injection, schedule: Q04DX003 (ip), vehicle: carboxymethylcellulose (CMC)): 0 of 6
- survivor count [9]: 3 of 6
- survivor count (dose: 200.0 mg/kg/injection, schedule: Q04DX003 (ip), vehicle: carboxymethylcellulose (CMC)): 0 of 6
- survivor count [10]: 0 of 6
- survivor count (dose: 400.0 mg/kg/injection, schedule: Q04DX003 (ip), vehicle: carboxymethylcellulose (CMC)): 0 of 6

Compound: CN(C)C(=S)SSSSC(=S)N(C)C
- survivor count (dose: 100.0 mg/kg/injection, schedule: Q04DX002 (ip), vehicle: Klucel (hydroxypropylcellulose) (HPC)): 3 of 3
- survivor count (dose: 200.0 mg/kg/injection, schedule: Q04DX002 (ip), vehicle: Klucel (hydroxypropylcellulose) (HPC)): 3 of 3

Compound: CN(C)C(=O)c1cccc(NC(=O)NCc2cccc(N3C(N)=NC(N)=NC3(C)C)c2)c1
- survivor count (dose: 200.0 mg/kg/injection, schedule: Q01DX009 (ip), vehicle: saline with Tween-80): 1 of 6
- survivor count [14]: 2 of 6
- survivor count [4]: 1 of 6
- survivor count [5]: 0 of 6

Compound: CCOC(=O)OC(=O)CNC(=O)CN1C(=O)c2ccccc2C1=O
- survivor count (dose: 50.0 mg/kg/injection, schedule: Q01DX001 (ip), vehicle: saline): 4 of 4

Compound: C[n+]1ccc(Cl)c2ccc(Cl)cc21
- survivor count [6]: 1 of 6
- survivor count [7]: 0 of 6
- survivor count [8]: 0 of 6

Compound: O=C(O)c1cccnn1
- survivor count [3]: 1 of 6

Compound: C[N+](C)(C)Cc1c(C(O)(c2ccccc2)c2ccccc2)ccc2ccccc12
- survivor count [9]: 2 of 4
- survivor count [10]: 1 of 4

Compound: COc1ccccc1N(C(C)=O)C1=C(Cl)C(=O)c2ccccc2C1=O
- survivor count (dose: 40.0 mg/kg/injection, schedule: Q01DX001 (ip), vehicle: saline): 2 of 6
- survivor count [6]: 0 of 6
- survivor count [7]: 0 of 6
- survivor count [8]: 0 of 6

Compound: Oc1c(-c2ccccc2)nn(O)c1-c1ccccc1
- survivor count [1]: 0 of 3
- survivor count (dose: 200.0 mg/kg/injection, schedule: Q01DX009 (ip), vehicle: Klucel (hydroxypropylcellulose) (HPC)): 0 of 3

Compound: CC(N)CN(C)C (stereo unspecified)
- survivor count (dose: 400.0 mg/kg/injection, schedule: Q01DX009 (ip), vehicle: saline): 1 of 6

Compound: CC(C)COC(=O)c1ccc(NC(=S)Nc2ccccc2)cc1
- survivor count [2]: 0 of 6

Compound: O=C(O)C[As](=O)(O)O
- survivor count (dose: 15.0 mg/kg/injection, schedule: Q01DX009 (ip), vehicle: saline): 1 of 3

Compound: c1ccc2c(c1)[nH]c1c[n+]3c(c[n+]12)[nH]c1ccccc13
- survivor count [3]: 0 of 4

Compound: CC(=O)OCCN1CCN(CC/C=C2\c3ccccc3Sc3ccc(Cl)cc32)CC1
- T/C (dose: 10.0 mg/kg/injection, schedule: Q01DX009 (ip), vehicle: saline): 136 % of control
- T/C (dose: 20.0 mg/kg/injection, schedule: Q01DX009 (ip), vehicle: saline): 130 % of control
- survivor count (dose: 25.0 mg/kg/injection, schedule: Q01DX009 (ip), vehicle: saline): 5 of 6
- T/C (dose: 40.0 mg/kg/injection, schedule: Q01DX009 (ip), vehicle: saline): 125 % of control
- survivor count (dose: 50.0 mg/kg/injection, schedule: Q01DX009 (ip), vehicle: saline): 1 of 6
- T/C (dose: 50.0 mg/kg/injection, schedule: Q04DX003 (ip), vehicle: saline): 132 % of control
- survivor count (dose: 80.0 mg/kg/injection, schedule: Q01DX009 (ip), vehicle: saline): 3 of 6 and 6 of 6
- survivor count [11]: 0 of 6
- T/C (dose: 100.0 mg/kg/injection, schedule: Q04DX003 (ip), vehicle: saline): 127 and 129 % of control
- survivor count [12]: 3 of 6
- survivor count [3]: 0 of 4
- survivor count [13]: 0 of 6

Compound: CCOC(=O)CNc1ccc(Br)cc1
- survivor count (dose: 400.0 mg/kg/injection, schedule: Q04DX002 (ip), vehicle: Klucel (hydroxypropylcellulose) (HPC)): 0 of 3

Compound: CCNC(=S)NNc1ccccc1
- survivor count [5]: 3 of 6

Compound: CCCN(C(=O)N([Si](C)(C)C)S(=O)(=O)c1ccc(Cl)cc1)[Si](C)(C)C
- survivor count (dose: 200.0 mg/kg/injection, schedule: Q01DX009 (ip), vehicle: saline): 3 of 3

Compound: CC[Si](C)(C)N1CC1
- survivor count (dose: 50.0 mg/kg/injection, schedule: Q01DX001 (ip), vehicle: carboxymethylcellulose (CMC)): 6 of 6
- survivor count (dose: 100.0 mg/kg/injection, schedule: Q01DX001 (ip), vehicle: carboxymethylcellulose (CMC)): 0 of 4
- survivor count [9]: 0 of 4
- survivor count [10]: 0 of 4

Compound: CN1CCC23CCCCC2C1Cc1ccc(O)cc13 (stereo unspecified)
- survivor count [7]: 1 of 6
- survivor count [8]: 0 of 6

Compound: CN1CCCC1CCNc1nc(C(Cl)(Cl)Cl)nc2ccc(Cl)cc12 (stereo unspecified)
- survivor count [14]: 0 of 6
- survivor count [5]: 0 of 6

Compound: C[N+](C)(C)C1(Cc2ccccc2)c2ccccc2-c2ccc(Br)cc21 (stereo unspecified)
- survivor count [12]: 3 of 6
- survivor count [13]: 0 of 6

— PubChem BioAssay AID248 (DTP/NCI, 2004)
